Where two headings read alike, the source gives them in different places. Results are given in words; binding and its absence hold for the method and conditions named. In cells and extracts the contact can be indirect. Some results given as binding are weak or reduced against the parent protein; the word gives no strength. For some of these results: Sequences can lack the tags named with a protein.

The chains behind the UniProt entries cited, without tags or fusion partners. Where a name states a change or a piece, a line headed by the entry shows the natural chain unless it says otherwise.
UniProt P10275: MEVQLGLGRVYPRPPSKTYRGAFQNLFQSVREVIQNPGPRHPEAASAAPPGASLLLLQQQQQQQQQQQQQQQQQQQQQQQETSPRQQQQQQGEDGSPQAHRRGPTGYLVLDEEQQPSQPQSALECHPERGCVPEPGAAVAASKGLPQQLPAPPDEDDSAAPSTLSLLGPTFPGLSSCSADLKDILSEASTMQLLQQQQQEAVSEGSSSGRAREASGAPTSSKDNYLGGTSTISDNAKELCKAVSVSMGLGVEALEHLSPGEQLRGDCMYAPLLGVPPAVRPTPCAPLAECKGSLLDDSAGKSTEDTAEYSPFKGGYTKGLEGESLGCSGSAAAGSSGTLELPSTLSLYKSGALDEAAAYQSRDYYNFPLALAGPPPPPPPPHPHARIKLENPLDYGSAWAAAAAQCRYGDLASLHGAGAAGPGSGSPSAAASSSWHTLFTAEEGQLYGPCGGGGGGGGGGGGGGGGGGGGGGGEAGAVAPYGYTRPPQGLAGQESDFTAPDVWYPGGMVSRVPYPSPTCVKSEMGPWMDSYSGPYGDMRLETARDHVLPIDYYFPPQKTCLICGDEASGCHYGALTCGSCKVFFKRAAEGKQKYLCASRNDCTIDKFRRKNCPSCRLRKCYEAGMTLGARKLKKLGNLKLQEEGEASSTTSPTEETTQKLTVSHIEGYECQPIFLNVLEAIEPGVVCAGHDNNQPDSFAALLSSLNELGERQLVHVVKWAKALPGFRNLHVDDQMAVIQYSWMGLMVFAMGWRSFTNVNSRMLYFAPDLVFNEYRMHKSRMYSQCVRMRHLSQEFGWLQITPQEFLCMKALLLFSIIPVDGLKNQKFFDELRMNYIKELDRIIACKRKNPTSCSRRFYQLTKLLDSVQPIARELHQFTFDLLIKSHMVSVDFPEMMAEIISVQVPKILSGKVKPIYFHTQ
UniProt P23769: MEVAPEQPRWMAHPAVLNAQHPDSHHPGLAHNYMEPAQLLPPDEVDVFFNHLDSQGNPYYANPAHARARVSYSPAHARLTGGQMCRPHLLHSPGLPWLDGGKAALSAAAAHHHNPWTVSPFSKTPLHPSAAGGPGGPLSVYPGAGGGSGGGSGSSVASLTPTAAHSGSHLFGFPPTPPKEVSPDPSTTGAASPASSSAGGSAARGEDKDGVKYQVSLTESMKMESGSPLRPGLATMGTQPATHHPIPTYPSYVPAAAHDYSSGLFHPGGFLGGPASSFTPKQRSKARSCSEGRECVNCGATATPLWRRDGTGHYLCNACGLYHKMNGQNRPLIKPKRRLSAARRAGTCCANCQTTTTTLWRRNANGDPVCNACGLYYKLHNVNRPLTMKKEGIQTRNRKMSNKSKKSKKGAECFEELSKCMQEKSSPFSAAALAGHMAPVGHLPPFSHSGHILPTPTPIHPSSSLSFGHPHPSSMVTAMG

Assay [1] deals with T1, N-terminal domain of CCAR1 (aa 1-249) (UniProt Q8IX12).
T1 sequence: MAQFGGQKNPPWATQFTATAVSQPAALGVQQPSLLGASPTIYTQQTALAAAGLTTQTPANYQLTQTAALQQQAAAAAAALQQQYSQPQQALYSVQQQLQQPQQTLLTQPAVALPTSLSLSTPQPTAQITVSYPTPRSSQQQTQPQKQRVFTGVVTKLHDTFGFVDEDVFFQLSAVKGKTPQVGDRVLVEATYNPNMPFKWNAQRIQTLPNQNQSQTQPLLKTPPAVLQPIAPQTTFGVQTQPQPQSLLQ
Briefly: pull-down; GST pull-down mapping of CCAR1 domains with AR and GATA2 (Supplementary Figure S13); details not shown.

For assay [2], the target named is T2, FLAG-tagged CCAR1 expressed in 293T cells (UniProt Q8IX12).
T2 sequence: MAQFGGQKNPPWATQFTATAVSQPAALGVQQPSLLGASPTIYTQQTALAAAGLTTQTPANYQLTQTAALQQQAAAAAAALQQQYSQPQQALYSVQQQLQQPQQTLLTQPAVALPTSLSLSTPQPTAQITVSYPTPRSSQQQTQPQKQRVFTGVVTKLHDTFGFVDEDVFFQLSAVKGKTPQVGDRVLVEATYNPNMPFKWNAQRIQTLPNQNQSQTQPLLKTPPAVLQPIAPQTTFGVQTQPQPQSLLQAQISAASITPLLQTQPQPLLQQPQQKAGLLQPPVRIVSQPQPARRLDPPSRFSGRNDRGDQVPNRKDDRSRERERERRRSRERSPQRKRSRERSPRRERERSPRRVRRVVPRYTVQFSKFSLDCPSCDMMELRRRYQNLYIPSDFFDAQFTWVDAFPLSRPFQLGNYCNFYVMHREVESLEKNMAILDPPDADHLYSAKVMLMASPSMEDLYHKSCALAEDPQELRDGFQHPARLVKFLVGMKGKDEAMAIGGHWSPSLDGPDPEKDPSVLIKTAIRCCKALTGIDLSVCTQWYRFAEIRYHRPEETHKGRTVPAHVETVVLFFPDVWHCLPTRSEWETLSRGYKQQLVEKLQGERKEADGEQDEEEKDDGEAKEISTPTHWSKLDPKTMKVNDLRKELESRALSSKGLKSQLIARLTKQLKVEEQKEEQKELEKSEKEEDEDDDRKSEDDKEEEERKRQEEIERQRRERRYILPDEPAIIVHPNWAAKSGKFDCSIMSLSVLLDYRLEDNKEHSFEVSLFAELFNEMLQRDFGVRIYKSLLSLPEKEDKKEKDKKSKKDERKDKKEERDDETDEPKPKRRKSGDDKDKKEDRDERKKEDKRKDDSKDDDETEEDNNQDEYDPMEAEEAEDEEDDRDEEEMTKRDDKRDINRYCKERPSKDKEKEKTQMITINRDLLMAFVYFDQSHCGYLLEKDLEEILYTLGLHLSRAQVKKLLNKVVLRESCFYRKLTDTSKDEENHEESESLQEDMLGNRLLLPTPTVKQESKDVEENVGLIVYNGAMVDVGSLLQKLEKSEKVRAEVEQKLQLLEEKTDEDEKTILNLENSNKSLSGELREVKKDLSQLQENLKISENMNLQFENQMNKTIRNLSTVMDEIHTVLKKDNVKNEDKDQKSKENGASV
Briefly: co-IP; extracts of transiently transfected 293T cells immunoprecipitated with anti-FLAG antibody or normal IgG; immunoblot; in Figure 5C with or without co-expressed CCAR1.

In assay [3] the target is FLAG-tagged AR expressed in 293T cells (UniProt P10275). The assay is described as above.
The target in the next assay is T3, Recombinant GST-CCAR1 (UniProt Q8IX12).
T3 sequence: T2 sequence
Briefly: pull-down; in vitro translated HA-tagged GATA2 incubated with recombinant GST-CCAR1; bound proteins detected by immunoblot with anti-HA; only the target purified. A general note: A western blot detects proteins with antibodies after separation by electrophoresis.

Assay [4] deals with T4, Central domain of CCAR1 (aa 203-660) (UniProt Q8IX12).
T4 sequence: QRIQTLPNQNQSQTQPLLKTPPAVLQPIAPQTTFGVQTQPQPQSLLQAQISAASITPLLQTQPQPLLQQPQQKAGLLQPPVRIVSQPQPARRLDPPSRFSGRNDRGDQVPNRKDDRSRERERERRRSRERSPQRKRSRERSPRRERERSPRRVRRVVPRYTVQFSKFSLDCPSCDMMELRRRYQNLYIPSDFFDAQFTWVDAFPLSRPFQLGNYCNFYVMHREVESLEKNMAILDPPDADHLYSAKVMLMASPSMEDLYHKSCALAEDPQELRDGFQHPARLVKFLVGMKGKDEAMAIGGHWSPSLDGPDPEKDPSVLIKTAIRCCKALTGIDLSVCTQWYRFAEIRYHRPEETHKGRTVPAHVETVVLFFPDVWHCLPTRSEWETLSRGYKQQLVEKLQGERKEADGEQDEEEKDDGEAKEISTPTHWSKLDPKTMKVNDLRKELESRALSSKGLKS
Briefly: pull-down; GST pull-down mapping of CCAR1 domains with AR and GATA2 (Supplementary Figure S13); details not shown.

Assay [5] has as its target FLAG-tagged AR expressed in 293T cells (UniProt P10275). Briefly: co-IP; extracts of transiently transfected 293T cells immunoprecipitated with anti-FLAG antibody or normal IgG; immunoblot; in Figure 5C with or without co-expressed CCAR1. The source holds these as a separate data set.
Assay [6] concerns the target AR as used in the in vitro GST pull-down assays with CCAR1 (Supplementary Figures S1B and S13) (UniProt P10275). Briefly: pull-down; in vitro GST pull-down of CCAR1 and AR or AR regions, with and without hormone (Supplementary Figure S1B-E); which partner carried GST not shown.

As for “AR as used in the in vitro GST pull-down assays with CCAR1 (Supplementary Figures S1B and S13) (from UniProt P10275 1-920)”, the binding result in assay [1] is “binds”.

For “HA-tagged GATA2 expressed in 293T cells (from UniProt P23769 1-480)”, the binding entry in assay [2] and in assay [3] was “binds” each time.

For “In vitro translated HA-tagged GATA2 (from UniProt P23769 1-480)”, the binding entry (with Recombinant GST-CCAR1; in assay [4]) was “binds” in each case.

B1: HA-tagged CCAR1 expressed in 293T cells (protein, UniProt Q8IX12 1-1150)
chain: T2 sequence
Consider B1, for which the binding entry in assay [5] is listed as “binds”.

B2: CCAR1 as used in the in vitro GST pull-down assays with AR (Supplementary Figure S1B-E) (protein, UniProt Q8IX12 1-1150)
chain: T2 sequence
In the case of B2, the binding result in assay [6] was “binds”.

The record behind these values is PMC3794601.
